Test results taken from PubChem BioAssay AID1347426 (Functional Genomics Laboratory (NCATS/FGL), 2020).
Among all 31,000 sequences or so, about 1,400 (4.5%) were called active.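 Rule for the calls: active = median seed-adjusted z-score above 1 or below -1; inactive = the rest.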 The list shows a part of the results.

assay: Novel Modifiers of Survival Motor Neuron (SMN) Protein: Gene Identification via Genome-wide siRNA Screen; details: HEK293T SMN2-luciferase reporter, siRNA knockdown, 72 h; actives lie on both sides;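 note: luminescence tracks full-length SMN protein made from the SMN2 reporter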
In short: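 siRNA screen, 10418 genes ×3 siRNAs; 1 pmol/well, lipid reverse transfection into HEK293T SMN2-luc reporter line. 72 h, 37 °C, 5% CO2; ONE-Glo readout. Data: neg-ctrl normalized, log10, MAD; hit = MAD >1.0 or < -1.0.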

| Sequence | median seed-adjusted z-score |
| --- | --- |
| CAUCAAAUCUAUGCAGUUUTT against KCNMA1 | inactive: 0 |
| GUGGGAAACAAGUAAUAUATT against ZNF502 | inactive: 0.348 |
| GGAAGAACCCUCUACCAAATT against COIL | inactive: 0 |
| GUUUCGUCCAUGCAUCAAATT against ABCC2 | inactive: -0.0464 |
| CCUGCUUACCUGAUCAAAATT against SLC25A34 | inactive: -0.256 |
| CGGUGCCUGCGAAACAUCATT against CRHR1 | inactive: -0.67 |
| CUCCAGAUAUAGACCUCAATT against TRIM22 | inactive: 0.363 |
| CAAUUACAAUGAGGAGAAATT against CHRND | inactive: -0.112 |
| GGGCUACCAUCAUUGAUCUTT against HDAC11 | inactive: 0.259 |
| UCAGAACCGUAGGAUGAAATT against HOXD9 | inactive: -0.123 |
| GAUUUUAUCUCAGUACAUUTT against UCK2 | active: -1.51 |
| GCAAAACAGCGGCAGAACATT against ATP8B2 | inactive: -0.268 |
| GCUACUGGGUGGGAGUAUATT against PIK3C2G | inactive: 0.0251 |
| CAUCCUAGCUAGCAUCUUUTT against SLC20A1 | inactive: -0.186 |
| CCACAUCUAAGAAAAUUUATT against PAX4 | inactive: 0.0811 |
| GGACUGACUCACAACUUAATT against ZNF527 | inactive: 0 |
| GGUUUUACAAAGGUUAAUATT against CACNB2 | inactive: 0 |
| CCAGUUAUUCAUGAACUUATT against DNAJB4 | inactive: -0.12 |
| AAUUCCUCUUCAACAUGUATT against HOXD9 | inactive: -0.123 |
| GGAAAUGCACAAGAUCUUUTT against BIN3 | inactive: 0.16 |
| GGAUGUUGGAAGACUCCGATT against NEO1 | inactive: 0.16 |
| GUACCUCCAUGGAGACAUATT against MKRN3 | inactive: 0.402 |
| AGAACAGCUUGACUCCCAUTT against MMP25 | inactive: 0 |

A different layout for some results above.
Sequence	median seed-adjusted z-score
CAUCAAAUCUAUGCAGUUUTT against KCNMA1	inactive: 0
GGAAGAACCCUCUACCAAATT against COIL	inactive: 0
UCAGAACCGUAGGAUGAAATT against HOXD9	inactive: -0.123
GGUUUUACAAAGGUUAAUATT against CACNB2	inactive: 0

Next entries follow:

| Sequence | median seed-adjusted z-score |
| --- | --- |
| CGACCUUCAAAGUUAACAATT against CLIP1 | inactive: 0.853 |
| GGCUGAAGCAUGCCCAGAATT against PPP1R16A | inactive: 0.322 |
| GGCUCGAAUGGGUUCAUCUTT against CSNK2A1 | inactive: -0.408 |
| GAUCCUAAUCAGAACGUGATT against RND3 | inactive: -0.132 |
| GGCCGAGUGUACUACUUCATT against PIN1 | inactive: 0.156 |
| GGAUGACAGUAACUUCGAUTT against EDEM3 | inactive: 0.119 |
| GCUGCGAUAUCAACGGUGATT against SOCS6 | inactive: 0.359 |
| CUGAAGACAUUGGUUCAAATT against MIXL1 | inactive: -0.204 |
| GAAGGAAACGAGCAGAUGATT against SGTA | inactive: 0.819 |
| GGAUAGGAACACCAACUAATT against PFKFB1 | inactive: -0.561 |
| CCAAGGCAUCGGACAAUGATT against SLCO1B3 | inactive: -0.303 |
| CCCACAAGCUCAACUGUGATT against DFFB | inactive: 0.242 |
| CAAAGUUCAGUGUUACGAUTT against ENC1 | inactive: -0.132 |
| GGACCUGAAUAAGCGCAAATT against GNAI2 | inactive: 0 |
| GCGAAAGGAUGCUUGCUAATT against RNF160 | inactive: -0.163 |
| GCAUGGUGGUGUACACGUUTT against FLVCR2 | inactive: -0.336 |
| GUAAAGCGAAUUGCACUUUTT against CRCT1 | inactive: -0.146 |
| CGGACAUACUCUGAAAUUATT against PCDHAC2 | inactive: -0.107 |
| GGAUCAUGAGGAUUUCAGATT against ACTN2 | inactive: 0.165 |
| CGGGUACUGUUCACAGCUATT against MPL | inactive: -0.0153 |
| CGUCAUUGUCAGUUACAUATT against GPR125 | inactive: 0.516 |
| GACAUUCGAUUGGAUGGAATT against EPYC | inactive: 0.00264 |
| GGCUGAUAGUUUAGGAGUUTT against EIF5B | active: 1.68 |

| Sequence | median seed-adjusted z-score |
| --- | --- |
| GGAGGAUGACAAGAUCUAUTT against RNF113A | inactive: -0.128 |
| CUGCUGUCAUUGCUCCUGATT against CCL27 | inactive: 0 |
| CAGAGAUAGUUGUGCUUUUTT against MEST | inactive: -0.0503 |
| CUGUUGAGGUUGUUAUUGATT against GABPA | active: 1.43 |
| GAAUGGAGGGAACACUUUUTT against ZNF562 | inactive: -0.0954 |
| GAGUGUCCACAUCAAGAGATT against ITGAD | inactive: 0.188 |
| GAAUUCCCGUGGACUUGAATT against ADCK2 | inactive: 0.0823 |
| GCAUUUUUAUCGUGCUCAUTT against GRIK5 | inactive: -0.242 |
| CAAGGAUGUUUAAAAUCUATT against FAS | inactive: -0.377 |
| GGUUUGCCCUUAUCUUGUATT against RDH10 | inactive: -0.28 |
| GAUGAAGAGUGACUUGUUUTT against PKD1 | inactive: -0.228 |
| CGAUCGAGUGGAUGAAGAATT against MMP24 | active: -1.28 |
| CCUCCAACGUAUCAUGAGATT against CYP7A1 | inactive: -0.0092 |
| GGAACUACAUCUUCGAGAUTT against LRRC33 | inactive: -0.194 |
| CCAUGGAUGCUCCUCUGAATT against PLAUR | inactive: -0.118 |
| ACUGAUUGCUUGGAUUAUATT against OTX2 | inactive: -0.00351 |
| GCAUGGAGGUGGUCUAUGATT against MKRN1 | inactive: -0.496 |
| GGACAGGAAGAUACAAGAATT against GPR113 | inactive: -0.434 |
| CAAACAGCACUAUUUCAUUTT against KCTD1 | inactive: 0 |
| CAGGCAAAAAGAAGCAUUATT against PADI1 | inactive: 0 |
| CCAGCUCCACGAAAAAGAATT against ZNF395 | inactive: -0.0986 |
| CCGUGAAGUUCGACCCGUATT against TH | inactive: -0.878 |
| CCCUCCAAAUCUGAGAUUUTT against KIF17 | inactive: -0.151 |
